# In US20220372585A1, “Sensors for Aromatic Compounds and Methods of Making and Using Same” (Washington University, priority 2021, published 2022):
# By UniProt entry, the sequences of proteins in these tests, tags left out. Where a name states a change or a piece, a line headed by the entry shows the natural chain unless it says otherwise.
# UniProt P07604: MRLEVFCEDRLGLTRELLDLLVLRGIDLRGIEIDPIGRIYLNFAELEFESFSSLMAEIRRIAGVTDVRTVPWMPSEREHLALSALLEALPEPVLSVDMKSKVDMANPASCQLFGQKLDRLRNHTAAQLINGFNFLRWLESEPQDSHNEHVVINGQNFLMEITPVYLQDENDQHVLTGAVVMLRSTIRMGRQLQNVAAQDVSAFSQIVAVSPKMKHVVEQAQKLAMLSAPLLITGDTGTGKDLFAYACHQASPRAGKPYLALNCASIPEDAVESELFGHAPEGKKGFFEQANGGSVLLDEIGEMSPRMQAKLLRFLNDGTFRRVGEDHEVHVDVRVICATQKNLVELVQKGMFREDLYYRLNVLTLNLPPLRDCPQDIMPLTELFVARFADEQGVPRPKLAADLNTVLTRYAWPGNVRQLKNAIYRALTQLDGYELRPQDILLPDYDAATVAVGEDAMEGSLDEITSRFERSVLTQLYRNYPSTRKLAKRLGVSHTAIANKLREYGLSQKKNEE
# Some of these results come from one statement about several compounds together.
# Biological target: T1, TyrR (Escherichia coli, UniProt P07604)
# T1 construct: the lack of repression when only controlled by genomic TyrR expression; endogenous in cells; host or cells: E. coli Nissle 1917 (EcN)
# Test: TyrR-regulated promoter screen with wild-type (genomic) expression of TyrR, repressible promoters
# Format: cell-based, E. coli
# Conditions: FIG. 8B
row,Compound,fold repression of known repressible promoters [fold]
1,"N[C@@H](Cc1ccccc1)C(=O)O [Phenylalanine, phenylalanine]",≤ 3
2,"N[C@@H](Cc1ccc(O)cc1)C(=O)O [Tyrosine, tyrosine]",≤ 3
